{
  "source": "PubChem BioAssay AID445",
  "about": "(National Center for Advancing Translational Sciences (NCATS), 2006)",
  "note": "This is one part of the list. Shown are side measurements of this screen, not its main read-out; they come without a call. Most of these compounds were active or inconclusive in the main read-out, so they are no random draw. The note in brackets gives the kind of curve behind each potency; many fits are weak.",
  "data": [
    {"test": "IkB Signaling", "settings": "ABC-DLBCL IkBa-CBG/CBR dual luciferase ratio (green luciferase fused to IkBa over red control in OCI-Ly3 lymphoma cells), 4 h; measured here: control luc red channel unless noted", "procedure,_shortened": "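Luminescence ratio of IκBα-fused green versus native red beetle luciferase in OCI-Ly3 cells, 4 h post-doxycycline with compound; red signal alone, scaled from basal (0%) to zero light (-100%), flagged nonspecific or cytotoxic effects.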", "values": [
      {"compound": "O=C(CCn1cnc2onc(-c3ccc(F)cc3)c2c1=O)Nc1ccc(F)c(Cl)c1", "AC50": "6.31 µM [falling, single point]"},
      {"compound": "CCc1c(C)sc2c1CCN(Cc1ccccc1)C2c1ccccc1", "note": "(stereo not drawn)", "AC50": "39.8 µM [falling, single point]"},
      {"compound": "CCOC(=O)c1cc(-c2ccccc2)n(CCC(=O)NCc2ccccc2Cl)c1C", "AC50": "2 µM [rising, partial curve]"},
      {"compound": "COc1ccc(Nc2nc3ccccc3nc2NS(=O)(=O)c2ccc(C)cc2)c(OC)c1", "AC50": "15.8 µM [falling, single point]"},
      {"compound": "CCN(CC)c1cc(C)c2cc(NC(=O)c3cccc(OC)c3OC)ccc2n1", "AC50": "15.8 µM [rising, partial curve]"},
      {"compound": "Cc1nc2nc(SCC(=O)N(C)Cc3ccccc3)nn2c(C)c1Cc1ccccc1Cl", "AC50": "25.1 µM [falling, partial curve]"},
      {"compound": "Cc1c(Cl)cccc1-c1ccc(CNCCCSc2nnnn2C)o1", "AC50": "39.8 µM [falling, single point]"},
      {"compound": "Cc1ccc(Sc2ccc(N3CCCC(C(=O)Nc4ccc(Br)cc4)C3)nn2)cc1", "note": "(stereo not drawn)", "AC50": "5.01 µM [falling, full curve]"},
      {"compound": "COc1ccc(SCc2cc(=O)c3ccc(C)c(C)c3[nH]2)cc1", "AC50": "15.8 µM [falling, partial curve]"},
      {"compound": "O=C(NCCc1ccc(Cl)cc1)c1cc(-c2ccccc2)n[nH]1", "AC50": "10 µM [falling, partial curve]"},
      {"compound": "Cc1ccc(C)c(N2CCN(c3nc4ccccc4c(=O)n3-c3ccc(Cl)cc3)CC2)c1", "AC50": "20 µM [falling, single point]"},
      {"compound": "Cc1ccc(C)c(-n2nnnc2SCC(=O)NCCC2=CCCCC2)c1", "AC50": "20 µM [falling, partial curve]"},
      {"compound": "COc1ccc2c(c1)Cc1sc(NC(=O)c3ccccc3C)nc1-2", "AC50": "20 µM [falling, partial curve]"},
      {"compound": "COc1cccc(CNC(=O)c2ccc(-c3nc(CS(=O)c4ccccc4)c(C)o3)cc2)c1", "note": "(stereo not drawn)", "AC50": "31.6 µM [falling, single point]"},
      {"compound": "CCN(CCCNC(=O)CSc1cc(=O)n(CC)c2ccccc12)c1ccccc1", "AC50": "15.8 µM [falling, partial curve]"},
      {"compound": "CCc1ccc(CNC(=O)Cn2ccc3cc(S(=O)(=O)N4CCCCCC4)ccc32)cc1", "AC50": "3.16 µM [falling, full curve, poor fit]"},
      {"compound": "COc1ccc(OC)c2sc(N(Cc3cccnc3)C(C)=O)nc12", "AC50": "0.00631 µM [rising, full curve, poor fit]"},
      {"compound": "Nn1c(-c2cccs2)nc2sc3c(c2c1=O)CCCC3", "AC50": "39.8 µM [falling, single point]"},
      {"compound": "COc1ccc2cc3c(N)nn(C(=O)Cc4ccccc4OC)c3nc2c1", "AC50": "20 µM [falling, partial curve]"},
      {"compound": "COc1ccc(-c2cc(C(=O)N3CCCCC3)no2)cc1OC", "AC50": "12.6 µM [falling, partial curve]"},
      {"compound": "CC1CN(C(=O)Nc2ccc(C(=O)NCc3ccccc3F)cc2)c2ccccc2S1", "note": "(stereo not drawn)", "AC50": "12.6 µM [falling, partial curve]"},
      {"compound": "COC(=O)c1ccc(NC(=O)CSc2n[nH]c(-c3ccccc3)n2)cc1", "AC50": "3.98 µM [falling, partial curve, poor fit]"},
      {"compound": "Fc1ccccc1N1CCN(Cc2nnc(-c3ccc4c(c3)OCO4)o2)CC1", "AC50": "31.6 µM [falling, single point]"},
      {"compound": "Cc1ccc(C)c(N2C(=O)N(Cc3ccccc3C)c3ccccc3S2(=O)=O)c1", "AC50": "7.94 µM [falling, full curve]"},
      {"compound": "CCn1cc(C2=NC(c3ccccc3)CO2)c2ccccc21", "note": "(stereo not drawn)", "AC50": "15.8 µM [falling, partial curve]"},
      {"compound": "O=C(Nc1nc2c(Cl)cccc2s1)c1ccc(S(=O)(=O)N2CCc3ccccc32)cc1", "AC50": "0.316 µM [falling, full curve]"},
      {"compound": "Cc1ccc(NC(=O)Cc2ccc(NC(=O)N3CCCCc4ccccc43)cc2)cc1Cl", "AC50": "20 µM [falling, partial curve]"},
      {"compound": "O=C(Nc1ccccc1C(F)(F)F)c1cc(-c2ccccc2O)on1", "AC50": "0.000158 µM [falling, full curve]"},
      {"compound": "Cc1cccc(C)c1-n1ncc(C(=O)NCCCN2CCCCC2)c1C1CCN(C(=O)OC(C)(C)C)CC1", "AC50": "15.8 µM [falling, partial curve]"},
      {"compound": "COc1ccc(C2CC(C(F)(F)F)n3nc(C(=O)NCc4c(C)nn(C)c4C)c(Cl)c3N2)cc1", "note": "(stereo not drawn)", "AC50": "20 µM [falling, partial curve]"},
      {"compound": "CCCCOc1ccc(C(=O)NCC(c2ccc(Cl)cc2)N2CCOCC2)cc1", "note": "(stereo not drawn)", "AC50": "31.6 µM [falling, single point]"},
      {"compound": "Cc1nc2cc(-c3ccc(Cl)cc3)nn2c(C)c1CCC(=O)N1CCN(c2ccccc2)CC1", "AC50": "0.251 µM [falling, full curve]"},
      {"compound": "CSc1nc2ccc(NS(=O)(=O)c3ccc(Cl)s3)cc2s1", "AC50": "25.1 µM [falling, partial curve]"},
      {"compound": "CS(=O)(=O)c1ncc(Cl)c(C(=O)N2CCN(c3cccc(Cl)c3)CC2)n1", "AC50": "5.01 µM [falling, partial curve]"},
      {"compound": "O=C(Nc1nc(-c2ccccc2)cs1)C1CCCN(S(=O)(=O)c2ccccc2)C1", "note": "(stereo not drawn)", "AC50": "2.51 µM [falling, full curve]"},
      {"compound": "CCc1ccc(-c2nc3c(c(SCc4ccccc4)n2)Cc2c(CO)cnc(C)c2O3)cc1", "AC50": "0.0398 µM [rising, full curve, poor fit]"},
      {"compound": "CC(C)Oc1ccc(CNC(=O)c2cc3cccc4c3n2CC(C)S4)cc1", "note": "(stereo not drawn)", "AC50": "12.6 µM [falling, partial curve]"},
      {"compound": "COc1ccc(Cl)cc1NC(=O)c1ccc(CN2C(=O)CCn3nc(C)cc32)cc1", "AC50": "25.1 µM [falling, partial curve]"},
      {"compound": "COc1cc(Cl)c(C)cc1NC(=O)CNC(=O)Cn1ccc2ccccc2c1=O", "AC50": "10 µM [falling, partial curve]"},
      {"compound": "COc1ccc(Nc2ncnc3c2cnn3-c2cc(Cl)ccc2C)cc1OC", "AC50": "39.8 µM [falling, single point]"},
      {"compound": "Cc1cccc(-c2nc(SCCCOc3cc(C)c(Cl)c(C)c3)n3[nH]c(=O)cc3n2)c1", "AC50": "39.8 µM [rising, single point]"},
      {"compound": "CC(=O)[C@@H]1CC[C@@H]2[C@@H]3C[C@H](C)C4=CC(=O)CC[C@@]4(C)[C@H]3[C@H](O)C[C@]21C", "AC50": "3.98 nM [rising, full curve, poor fit] [measured here: IkB-luc green channel]"},
      {"compound": "CNc1nc(SCc2ccccc2)nc(N2CCOCC2)n1", "AC50": "1.58 µM [rising, partial curve]"},
      {"compound": "CCCc1oc2ccc(NS(=O)(=O)c3ccc(OCC)cc3)cc2c1C(=O)OCC", "AC50": "7.94 µM [rising, single point] [measured here: IkB-luc green channel]"},
      {"compound": "Cc1ccc(C(=O)OC2=C(C(=O)c3ccccc3)N(C)S(=O)(=O)c3ccccc32)cc1", "AC50": "39.8 µM [falling, single point]"},
      {"compound": "COc1ccccc1C(c1nnnn1CS(=O)(=O)c1ccc(C)cc1)N1CCSCC1", "note": "(stereo not drawn)", "AC50": "39.8 µM [falling, single point]"},
      {"compound": "CC(=O)OC1=C(C(C)=O)N(Cc2ccccc2)S(=O)(=O)c2ccccc21", "AC50": "15.8 µM [falling, partial curve]"},
      {"compound": "Cc1cc(NC(=O)c2ccc(F)cc2)ccc1-c1cc2ccccc2oc1=O", "AC50": "20 µM [falling, partial curve]"},
      {"compound": "CC1CCN(C(=O)CCS(=O)(=O)c2cc3c(cc2Cl)NC(=O)CO3)CC1", "AC50": "0.00631 µM [rising, full curve, poor fit]"},
      {"compound": "COc1ccc(NC(=O)c2ocnc2C)cc1OC", "AC50": "3.98 µM [rising, partial curve]"},
      {"compound": "CCCCSc1nnc2[nH]c(=O)cc(C)n12", "AC50": "5.01 µM [falling, single point]"},
      {"compound": "CCN(CC)S(=O)(=O)c1ccc(NC(=O)c2nn(C)c3c2CSc2ccccc2-3)cc1", "AC50": "20 µM [falling, single point]"},
      {"compound": "CCOc1ccc(Nc2nc(N)c(C(=O)c3ccccc3Cl)s2)cc1", "AC50": "2 µM [falling, full curve]"},
      {"compound": "Fc1ccc(Nc2nc(SCc3cccc(F)c3)nc3ccccc23)cc1", "AC50": "12.6 µM [falling, single point]"},
      {"compound": "CCOC(=O)c1ccc(N2C(=O)c3[nH]nc(-c4ccc(C)cc4)c3C2c2ccc(O)cc2)cc1", "note": "(stereo not drawn)", "AC50": "20 µM [falling, partial curve]"},
      {"compound": "CC(C)Cn1cc(NC(=O)NCc2ccc(Cl)cc2)c2ccccc2c1=O", "AC50": "31.6 µM [falling, single point]"},
      {"compound": "COc1ccc(C2c3c(n(C)c4ccccc34)C(=O)N2CC(=O)Nc2c(C)cc(C)cc2C)cc1", "note": "(stereo not drawn)", "AC50": "20 µM [falling, partial curve]"},
      {"compound": "Cc1ccc(-c2csc(N(CCCN3CCOCC3)C(=O)c3ccco3)n2)cc1", "AC50": "39.8 µM [falling, single point]"},
      {"compound": "CCOc1ccccc1CNC(=O)C(CC)n1nc(C)c2c(C)n(-c3ccccc3)nc2c1=O", "note": "(stereo not drawn)", "AC50": "25.1 µM [falling, partial curve]"},
      {"compound": "Cc1c(C(=O)NCc2ccccc2Cl)sc2nc3n(c(=O)c12)CCCC3", "AC50": "31.6 µM [falling, single point]"},
      {"compound": "CCOC(=O)N1CCC(NC(=O)c2ccc3c(c2)N(Cc2ccccc2)C(=O)c2ccccc2S3(=O)=O)CC1", "AC50": "2.51 µM [falling, full curve, poor fit]"},
      {"compound": "Cc1ccc2c(c1)C(=O)OC(C(=O)Nc1ccc(C(=O)O)cc1)C2", "note": "(stereo not drawn)", "AC50": "0.251 µM [falling, full curve]"},
      {"compound": "O=C(Nc1ccc(Cl)cc1)c1ccc2oc(=O)n(Cc3ccccc3)c2c1", "AC50": "39.8 µM [falling, single point]"}
    ]}
  ]
}
